Data: PMC2414870
These are yes or no findings as the source states them, for the method shown. Binding seen in cells or lysates may run through a third protein. Binding calls can cover weak binding; strength is not graded here. Sequences can lack the tags named with a protein.

Target: T1, Neurexin IV-GFP fusion protein (protein trap line) (Drosophila (endogenous in embryos)) (UniProt Q94887)
T1 sequence: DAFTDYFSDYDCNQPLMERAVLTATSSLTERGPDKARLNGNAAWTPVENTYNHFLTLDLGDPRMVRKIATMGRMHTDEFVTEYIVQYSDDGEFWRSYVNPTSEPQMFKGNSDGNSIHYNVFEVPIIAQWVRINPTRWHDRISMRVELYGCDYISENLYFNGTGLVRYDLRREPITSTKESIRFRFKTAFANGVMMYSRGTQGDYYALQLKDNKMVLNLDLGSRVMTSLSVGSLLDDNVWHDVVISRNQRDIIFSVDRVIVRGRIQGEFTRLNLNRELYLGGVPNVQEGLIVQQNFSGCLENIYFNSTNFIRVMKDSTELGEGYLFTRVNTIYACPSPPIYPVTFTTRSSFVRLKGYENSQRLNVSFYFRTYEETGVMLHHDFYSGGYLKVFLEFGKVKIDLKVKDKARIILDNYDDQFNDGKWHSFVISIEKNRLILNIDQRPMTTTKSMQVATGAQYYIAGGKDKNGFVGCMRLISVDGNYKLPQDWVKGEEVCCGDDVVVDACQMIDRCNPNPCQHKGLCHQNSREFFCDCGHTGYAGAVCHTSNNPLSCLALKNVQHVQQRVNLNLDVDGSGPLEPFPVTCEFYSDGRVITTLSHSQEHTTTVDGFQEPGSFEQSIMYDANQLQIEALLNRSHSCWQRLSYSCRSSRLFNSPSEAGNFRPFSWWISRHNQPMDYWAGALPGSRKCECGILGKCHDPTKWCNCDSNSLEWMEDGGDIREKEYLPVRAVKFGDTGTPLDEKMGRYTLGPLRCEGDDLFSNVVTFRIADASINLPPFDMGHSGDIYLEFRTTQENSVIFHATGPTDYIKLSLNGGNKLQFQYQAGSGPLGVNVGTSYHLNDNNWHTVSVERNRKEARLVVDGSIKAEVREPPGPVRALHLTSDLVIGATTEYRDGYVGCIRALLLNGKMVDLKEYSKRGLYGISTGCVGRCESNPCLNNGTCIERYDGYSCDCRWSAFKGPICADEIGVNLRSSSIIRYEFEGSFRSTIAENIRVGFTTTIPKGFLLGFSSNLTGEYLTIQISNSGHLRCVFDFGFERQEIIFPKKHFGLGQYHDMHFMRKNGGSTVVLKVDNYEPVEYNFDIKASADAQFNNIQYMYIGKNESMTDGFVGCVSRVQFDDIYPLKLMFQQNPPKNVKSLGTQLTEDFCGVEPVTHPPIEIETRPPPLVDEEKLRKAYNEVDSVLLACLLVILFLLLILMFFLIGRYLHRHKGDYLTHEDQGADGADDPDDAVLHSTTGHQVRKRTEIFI
Assay: co-IP; NrxIV-GFP/TM6B embryos (> 8 h) lysed in CHAPS lysis buffer (20 mM Tris-HCl pH 8, 150 mM NaCl, 10% glycerol, 2 mM EDTA, 10 mM CHAPS); immunoprecipitation with mouse anti-GFP antibody, control anti-beta-gal antibody; Varicose detected with rabbit anti-Vari

| Substance | binding |
| --- | --- |
| Varicose, long isoform (Vari-long) (Drosophila (endogenous in embryos)) | binds |
| Varicose, short isoform (Vari-short) (Drosophila (endogenous in embryos)) | binds |
